Results are given in words; binding and its absence hold for the method and conditions named. Some results given as binding are weak or reduced against the parent protein; the word gives no strength.
Target: MS-GAPDH-H: recombinant M.tb H37Rv GAPDH with a C-terminal 8XHis tag, expressed in M. smegmatis (the (Mycobacterium tuberculosis H37Rv) (UniProt P9WN83))
Assay: Ni-NTA co-purification analysed by 2D gel electrophoresis

Protein sequences, listed by entry. Tags and fused reporters are not part of them.
UniProt P9WN83: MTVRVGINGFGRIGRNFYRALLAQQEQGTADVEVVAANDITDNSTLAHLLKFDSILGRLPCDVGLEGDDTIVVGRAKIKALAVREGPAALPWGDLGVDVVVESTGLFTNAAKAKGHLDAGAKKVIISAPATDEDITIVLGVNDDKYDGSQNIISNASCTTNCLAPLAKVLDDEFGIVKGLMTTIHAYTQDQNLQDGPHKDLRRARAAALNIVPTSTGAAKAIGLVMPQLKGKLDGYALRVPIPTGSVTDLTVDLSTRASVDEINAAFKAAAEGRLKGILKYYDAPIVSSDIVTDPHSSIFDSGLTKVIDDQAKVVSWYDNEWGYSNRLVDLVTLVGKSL
UniProt A0QWW2: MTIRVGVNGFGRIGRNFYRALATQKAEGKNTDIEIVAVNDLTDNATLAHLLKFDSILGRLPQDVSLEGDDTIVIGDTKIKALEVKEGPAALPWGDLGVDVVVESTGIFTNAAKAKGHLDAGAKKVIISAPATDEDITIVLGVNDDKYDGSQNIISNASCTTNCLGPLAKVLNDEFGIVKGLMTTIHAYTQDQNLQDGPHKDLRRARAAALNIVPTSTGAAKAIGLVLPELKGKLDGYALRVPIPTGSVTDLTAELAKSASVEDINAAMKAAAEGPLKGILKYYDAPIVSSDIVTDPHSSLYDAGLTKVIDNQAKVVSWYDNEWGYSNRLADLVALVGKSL

native M. smegmatis GAPDH (from UniProt A0QWW2 1-340) (enzyme)
binding: binds

Source: publication PMC4982137, “Mycobacterium tuberculosis H37Ra: a surrogate for the expression of conserved, multimeric proteins of M.tb H37Rv” (Microbial Cell Factories, 2016)
